From article PMC8533110
The exact form of at least one protein or probe is not confirmed. Weaker means in comparison with the reference protein, sequence or condition of that experiment. Protein sequences can lack the tags named with them. For some of these results: At least one verdict was read from the data and is not stated in words by the source.

Key:
[1] = biological target: T1, HrcA (Campylobacter jejuni NCTC 11168) (UniProt Q9PPG2); assay: DNase I footprinting; details: 42 C challenge then 25 C recovery, 45-180 nM; footprint: 5 mM Tris-HCl pH 8.0, 60 mM NaCl, 5 mM KCl, 5 mM MgCl2, 0.2 mM DTT, 0.01% NP40, 10% glycerol, salmon sperm DNA; 10 min at 25 C then 10 min at 25/37/42 C; recombinant protein; residues 1-264; protein details: N-terminal 6xHis (pET15b); label: 5'-32P on one end; probe letters rebuilt from the primers and the genome; part of a longer molecule
T1 sequence (looked up): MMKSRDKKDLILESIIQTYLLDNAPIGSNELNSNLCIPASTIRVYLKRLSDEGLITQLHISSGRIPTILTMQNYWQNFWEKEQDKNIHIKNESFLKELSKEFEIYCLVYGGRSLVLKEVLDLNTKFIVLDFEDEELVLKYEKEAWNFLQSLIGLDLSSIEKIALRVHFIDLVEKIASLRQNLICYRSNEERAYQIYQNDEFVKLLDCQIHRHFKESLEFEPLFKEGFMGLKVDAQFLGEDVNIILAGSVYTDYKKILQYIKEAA

[2] = biological target: T1, HrcA (Campylobacter jejuni NCTC 11168); assay: EMSA; details: EMSA: 10 mM Tris-HCl pH 8.0, 60 mM NaCl, 10 mM KCl, 5 mM MgCl2, 1 mM DTT, 0.05% NP40, 10% glycerol, residues 1-264, protein details: N-terminal 6xHis (pET15b), label: none (ethidium bromide stain), probe letters rebuilt from the primers and the genome

| Sequence | binding result [1] | binding result ([2]; 25 C, GST control, no GroE, 18.7-150 nM, recombinant …) | binding result ([2]; 42 C challenge then 25 C recovery, 45-180 nM, recombinant protein) | binding result ([2]; 42 C, 45-180 nM, recombinant protein) |
| --- | --- | --- | --- | --- |
| GCACAACAACAAAAGCTACAATGCCATAAAAAATCTTTTTCATTTTTATCCTTTAGTTTATTTTATAAAATAACTTTAGTCTATAAAACTAAACTTTTATAAATATTTTAATTTAAAGTATTGACAAAATTCATTTTTTATAGTATGATATTATCACTCTAAATTAAAGAGTGCTAAAATCAATATTTTTAAGGATGGACAAAAATGAATTTTCAACCTTTAGGAAAGCGTGTTCTAGTTAAACGCG (double strand) [Pgro promoter probe (footprint)] | binds more weakly | – | – | – |
| GGATCCGCACAACAACAAAAGCTACAATGCCATAAAAAATCTTTTTCATTTTTATCCTTTAGTTTATTTTATAAAATAACTTTAGTCTATAAAACTAAACTTTTATAAATATTTTAATTTAAAGTATTGACAAAATTCATTTTTTATAGTATGATATTATCACTCTAAATTAAAGAGTGCTAAAATCAATATTTTTAAGGATGGACAAAAATGAATTTTCAACCTTTAGGAAAGCGTGTTCTAGTTAAACGCGCTCGAG (double strand) [Pgro promoter probe (EMSA)] | – | binds | binds more weakly | binds more weakly |
